Results from PubChem BioAssay AID540303 (National Center for Advancing Translational Sciences (NCATS), 2011).
Out of some 330,000 compounds screened, about 1,000 (0.3%) were called active. Inconclusive results, whose numbers are uncertain, are shown with a selection of clear calls. Calls come from the whole dose curve; as a rule, active = well fitted inhibition curve with a large enough effect; inconclusive = small, poorly fitted or top-dose-only effect; inactive = no such curve, though single readings can be large or run the other way; tested in mouse RAW 264.7 cells. A potency beside an inconclusive call is a rough fit, not a confirmed value.

Test: qHTS for Inhibitors of Cell Surface uPA Generation; note: nearly all actives have a fitted effect of over 55% in size
Details: cell surface uPA generation assay; series mostly up to 38.3 µM; activity change, negative = inhibition: at the top concentration
How it was run: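 Murine RAW 264.7 cells are treated for 24 h with compound up to 38.3 uM final. Cell ATP, measured by ATP-Lite, remains high if blocking the uPA cascade prevents LF from reaching the cytoplasm.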
% is set by controls: 0 for no effect and ±100 for the full control effect; potency is the fitted concentration of half-maximal effect.

Structure (SMILES)	Potency	activity change, negative = inhibition
CCn1c(C)cc(/C=C2/SC(=S)N(CC(=O)O)C2=O)c1C	inconclusive: 1.26 µM [inhibitor, partial curve, poor fit]	
COc1ccc(C(CC(=O)Nc2ccc(F)cc2)c2ccccc2)cc1 (stereo not drawn)		inactive: 5.16%
COc1ccc(CNC(=O)CN(C(=O)CCC(=O)Nc2nccs2)c2ccccc2C)cc1		inactive: -0.419%
O=C(Cn1cnc2c(NCc3ccccc3)ncnc21)NCc1ccc2c(c1)OCO2	inconclusive: 10 µM [inhibitor, partial curve]	
CC(=O)N1CCOc2ccc(S(=O)(=O)N3CC(C)CC(C)C3)cc21 (stereo not drawn)	inconclusive: 5.01 µM [inhibitor, single point]	
CCOC(=O)C1=C(Cc2ccc(Cl)cc2)C(=O)c2ccccc2C1=O	inconclusive: 1.78 µM [inhibitor, full curve]	
O=S(=O)(c1cccc(NC(=S)N2CCN(c3ccccc3F)CC2)c1)C(F)F	inconclusive: 7.94 µM [inhibitor, single point]	
CCN(CC)CCN(Cc1cc2ccc(C)cc2[nH]c1=O)C(=S)Nc1ccccc1C(=O)OC		inactive: -1.6%
CN1/C(=C\C(=O)C[n+]2cccc(Br)c2)C(C)(C)c2ccccc21		inactive: 1.56%
CC(C)CCCN1C(N(C)C)=NC[C@@H]1Cc1ccccc1	inconclusive: 11.2 µM [inhibitor, partial curve]	
N#CC1=C2SCN(Cc3ccco3)CN2C(=O)CC1c1c(F)cccc1Cl (stereo not drawn)	inconclusive: 5.62 µM [inhibitor, partial curve, poor fit]	
CCc1nnc(NC(=O)c2cccnc2SC)s1	inconclusive: 1.78 µM [inhibitor, full curve, poor fit]	
O=C(CCc1nc2ccccc2c(=O)[nH]1)Nc1cc(Cl)ccc1N1CCCCC1	inconclusive: 28.2 µM [inhibitor, single point]	
O=C1N=C(O)CN1/N=C/c1ccc(-c2ccc([N+](=O)[O-])cc2)o1	inconclusive: 11.2 µM [inhibitor, single point]	
Cc1ccc(NC(=O)Cn2cc(C(F)(F)F)cc(Cl)c2=O)cc1S(=O)(=O)N1CCCCC1	inconclusive: 1.58 µM [inhibitor, full curve, poor fit]	
COc1cccc(NC(=O)c2cnn(-c3ccccc3)c2C)c1	active: 10 µM	
CCOc1ccc(C2c3[nH]c4ccccc4c3C[C@H]3C(=O)N(C4CCN(Cc5ccccc5)CC4)CC(=O)N23)cc1OC (stereo partly drawn)	inconclusive: 12.6 µM [inhibitor, single point]	
COc1cccc2sc(N(CCCN(C)C)C(=O)c3ccc(S(=O)(=O)N4CCCc5ccccc54)cc3)nc12	inconclusive: 11.2 µM [inhibitor, single point]	
COc1ccc(CNC(=S)Nc2ccc3nc(N4CCOCC4)cc(C)c3c2)cc1	inconclusive: 6.31 µM [inhibitor, partial curve, poor fit]	
CC(C)(C)C(=O)Cn1ncc(Br)c(Br)c1=O	inconclusive: 7.94 µM [inhibitor, single point]	
O=C(CNC(=O)c1ccccc1)NCC(=O)OCC(=O)c1ccc([N+](=O)[O-])cc1		inactive: -2.02%
CC1Cc2ccccc2N1C(=O)CN(C)CC(=O)Nc1ccc(OC(F)(F)F)cc1 (stereo not drawn)		inactive: -1.8%
N/C(=N\OC(=O)c1cccc(F)c1)c1ccccn1	inconclusive: 1.12 µM [inhibitor, partial curve, poor fit]	

Structure (SMILES)	Potency	activity change, negative = inhibition
O=c1oc(-c2ccc(O)c(O)c2)cc2cc(O)cc(O)c12	inconclusive: 6.31 µM [inhibitor, partial curve, poor fit]	
COc1ccc(OC)c(C(=O)N(C[C@H]2CC[C@@H]([C@@H]3CC[C@H](CO)O3)O2)C(C(=O)NC(C)(C)C)c2ccc(-c3ccccc3)cc2)c1 (stereo partly drawn)	inconclusive: 11.2 µM [inhibitor, single point]	
O=C1CCCN1c1ccc(S(=O)(=O)NCCOc2ccccc2)cc1		inactive: -4.06%
COC(=O)/C=C1\S/C(=N/N=C/c2ccco2)NC1=O		inactive: -9.87%
N#C/C(=C\c1ccc(O)c(O)c1)C(=O)N1CCCC1	inconclusive: 11.2 µM [inhibitor, partial curve, poor fit]	
CCC(C)c1ccc(OCC(=O)Nc2cccc(C(=O)Nc3ccc(C(=O)O)cc3)c2)cc1 (stereo not drawn)	inconclusive: 14.1 µM [inhibitor, partial curve, poor fit]	
CN1CCN(c2ccc([N+](=O)[O-])cc2NC(=O)c2cccs2)CC1	inconclusive: 0.316 µM [inhibitor, full curve, poor fit]	
CN(Cc1ccco1)c1ncnc2ccc(-c3ccc4c(ccn4C)c3)cc12	inconclusive: 1.12 µM [inhibitor, full curve, poor fit]	
Brc1ccc2c(c1)C(C1=NCCN1)c1ccccc1CS2 (stereo not drawn)	active: 0.501 µM	
COc1ccc(NC2CCCN(C(=O)c3cccc(C)n3)C2)cc1OC (stereo not drawn)	inconclusive: 11.2 µM [inhibitor, single point]	
O=S(=O)(Nc1ccc(Br)cc1)c1cccc2nonc12	inconclusive: 3.55 µM [inhibitor, full curve, poor fit]	
CC1CC(=O)Nc2ccccc2N1C(=O)Cn1cnc2ccccc2c1=O (stereo not drawn)	inconclusive: 0.316 µM [inhibitor, full curve, poor fit]	
CCc1c(O)nc(SCC(=O)Nc2nc3ccccc3s2)n(C2CCCCC2)c1=O	inconclusive: 8.91 µM [inhibitor, single point]	
Cc1ccc2[nH]cc(CCNC(=O)/C=C/c3ccco3)c2c1	inconclusive: 31.6 µM [inhibitor, partial curve, poor fit]	
CCN(CC(=O)Nc1cc(Cl)ccc1C)C(=O)c1ccc(N2CCCC2=O)cc1		inactive: 7.91%
O=C(OCC(=O)N1N=C(c2ccc(Cl)cc2)CC1c1ccco1)c1cccnc1 (stereo not drawn)	inconclusive: 5.62 µM [inhibitor, partial curve, poor fit]	
Cc1ccccc1N1CCN(CCC(=O)Nc2ccc(F)cc2)CC1	inconclusive: 28.2 µM [inhibitor, single point]	
O=C(/C=C/c1ccco1)Nc1ccc(CN2CCOCC2)cc1	inconclusive: 6.31 µM [inhibitor, partial curve]	
CC(=O)N1N=C(c2ccccc2)CC1c1ccccc1[N+](=O)[O-] (stereo not drawn)		inactive: 0.602%
Cc1ccc(N(C(=O)c2snc(C(N)=O)c2N)C(C(=O)NCC2CCCO2)c2ccc3ncccc3c2)cc1 (stereo not drawn)		inactive: -0.162%
Cc1ccc(C)c(Cn2c3ccccc3c3cnn(CC(=O)NCCCN4CCCCC4)c(=O)c32)c1	inconclusive: 10 µM [inhibitor, partial curve]	
CCOc1ccccc1NC(=O)Nc1cc(S(=O)(=O)N(C)C)ccc1C		inactive: -0.173%
C[C@@]12C(=O)Nc3cc(Cl)ccc3C(=O)N1[C@H]1c3cc(Cl)ccc3OC[C@@H]1[C@@H]2c1ccccc1	inconclusive: 8.91 µM [inhibitor, single point]	

Ordered by SMILES length (smallest number first): some entries from above.
Structure (SMILES)	Potency	activity change, negative = inhibition
COC(=O)/C=C1\S/C(=N/N=C/c2ccco2)NC1=O		inactive: -9.87%
COc1ccc(C(CC(=O)Nc2ccc(F)cc2)c2ccccc2)cc1 (stereo not drawn)		inactive: 5.16%
CC(=O)N1CCOc2ccc(S(=O)(=O)N3CC(C)CC(C)C3)cc21 (stereo not drawn)	inconclusive: 5.01 µM [inhibitor, single point]	
COc1ccc(CNC(=O)CN(C(=O)CCC(=O)Nc2nccs2)c2ccccc2C)cc1		inactive: -0.419%

Next part:

Structure (SMILES)	Potency	activity change, negative = inhibition
C/C(CC(=O)NC(C)(C)C)=N\NC(N)=S		inactive: -3.22%
CCOC(=O)Cc1nnc(NC(=O)CSc2nncn2C)s1		inactive: -0.84%
COc1cccc(C(=O)N2N=C(c3ccccn3)CC2(O)C(F)(F)F)c1 (stereo not drawn)	inconclusive: 14.1 µM [inhibitor, single point]	
CCC1(CC)Cc2ccccc2-c2nc(CCl)[nH]c(=O)c21	inconclusive: 14.1 µM [inhibitor, single point]	
Cc1c(Cl)c(-c2n[nH]c(=S)n2Cc2ccco2)nn1C		inactive: 6.64%
CCOC(=O)N1CCC(NC(=O)c2cc(C(=O)Nc3cccc(C(F)(F)F)c3)ccc2CO)CC1	inconclusive: 12.6 µM [inhibitor, single point]	
Cc1nn(C)cc1/C=C/C(=O)c1ccccc1	inconclusive: 11.2 µM [inhibitor, single point]	
COc1ccccc1C(c1nnnn1C(C)(C)C)N1CCN(C(=O)c2ccco2)CC1 (stereo not drawn)		inactive: -4.35%
Cn1nnnc1Sc1ncnc2scc(-c3ccc(-c4ccccc4)cc3)c12	active: 2 µM	
C[C@@H]1CN([C@@H](C)CO)C(=O)Cc2cc(NC(=O)Nc3ccc(C(F)(F)F)cc3)ccc2O[C@@H]1CN(C)S(=O)(=O)c1ccc(Cl)cc1	inconclusive: 12.6 µM [inhibitor, single point]	
O=C(CSc1nnc(-c2ccc([N+](=O)[O-])cc2)o1)Nc1ccccn1	inconclusive: 1.26 µM [inhibitor, partial curve, poor fit]	
Cc1[nH]c2ccc(C(=O)OCC(=O)Nc3cccc(S(N)(=O)=O)c3)cc2c1C		inactive: 12.7%
COc1ccc(C(=O)Cn2c(Br)nc3c2c(=O)n(C)c(=O)n3C)cc1OC		inactive: 1.88%
CCOC(=O)C1C(=O)CC(C)(O)C(C(=O)OCC)C1c1ccc(OC)cc1 (stereo not drawn)		inactive: 1.08%
Oc1c(N=NC(=S)Nc2ccccc2F)c2ccccc2n1Cc1ccccc1	inconclusive: 8.91 µM [inhibitor, single point]	
COc1cc(NC(=O)C(C)C)ccc1NC(=O)c1cc2ccccc2o1	active: 14.1 µM	
CC(=O)Oc1ccc(-c2nc3cc(Cl)ccc3c(=O)o2)cc1		inactive: -4.22%
COc1ccccc1NC(=O)C(C/C=C(/C)Cl)C(C)=O (stereo not drawn)		inactive: -2.1%
CN(C)C(CNC(=O)CCCN1C(=O)c2cccc3cccc(c23)C1=O)c1ccccc1 (stereo not drawn)		inactive: -7.64%
COc1cc(OC)c2c(-c3cccc(-c4ccc(F)c(Cl)c4)c3)cc(=O)oc2c1	inconclusive: 11.2 µM [inhibitor, single point]	
Cc1cccc(OCCC(=O)NNC(=O)Cn2nc(C)cc2C)c1		inactive: 2.11%
O=C1CC(C2CCCO2)C(=O)N1c1ccc(Cl)c(Cl)c1 (stereo not drawn)		inactive: -3.51%
